# From patent US20190345234A1 (CENTRE HOSPITALIER UNIVERSITAIRE VAUDOIS, published 2019)
# Results are given in words; binding and its absence hold for the method and conditions named.
# B1: IgG1 LN01 antibody (antibody, V domains shown)
# VH: EVQLVESGPGLVQPWGTLSLTCRVSGDSVSNDNYYWAWIRQTPGRELQVIGTIYYSGTTYYNPSLRNRVTISLDKSVNVVSLRLGSVSAADTAQYYCVRMPSHGFWSTSFSYWYFDLWGRGHFVAVSW
# VL: DIQMTQSPSSLSASVGDKVTITCRASQSVTKYLNWYQFKTGQAPRILIYGTYTLLSGVSPRFSGAGSGSLYTLTITNIQPEDFATYYCQQAHSTPWTFGQGTHVAAN
# Columns and labels:
# [1] = target: 426c core, gp140 where the V loops were removed (HIV-1 clade C strain 426c); experiment: ELISA
# [2] = target: 426c-NLGS, 426c gp140 where the N-linked glycosylation sites were removed (HIV-1 clade C strain 426c); experiment: ELISA
binder,measurement,setting,value
B1,binding,[1],no binding
same,binding,[2],no binding
